Data from US5486601A, “Trisazo dye, and aqueous ink composition containing the same” (priority 1993, dated 1996).

What was measured:
[1] = Water resistance of the handwriting (reflection density after dipping in tap water); settings: Na salt, 3% dye in 5% aqueous ethylene glycol on writing paper; air-dried one hour, dipped in tap water
[2] = Light resistance of the handwriting (sunlight for one month); parameters: key: .circleincircle.: Color changing and fading are scarcely observed.; .smallcircle.: Color changing and fading are observed.; ×: Color changing and fading are severe; settings: Na salt, 3% dye in 5% aqueous ethylene glycol on writing paper

Row | Compound | Fastness of the handwriting: water resistance [1] | Fastness of the handwriting: light resistance [2]
1 | Nc1ccc(N=Nc2ccc(N=Nc3c(S(=O)(=O)[O-])cc4cc(S(=O)(=O)[O-])c(N=Nc5ccc(N=Nc6ccc(N)cc6N)cc5)c(O)c4c3N)cc2)c(N)c1.[Na+].[Na+] [Comparative Example 1, C.I. Direct Black 19, reference compound] | .circleincircle. (The reflection density is not less than 70% of that before test.) | .smallcircle.
2 | Cc1cc(-c2ccc(N=Nc3c(S(=O)(=O)[O-])cc4cc(S(=O)(=O)[O-])c(N=Nc5ccccc5)c(O)c4c3N)c(C)c2)ccc1N=Nc1ccc(N)cc1N.[Na+].[Na+] [Comparative Example 2, C.I. Direct Black 154, reference compound] | .smallcircle. (The reflection density is within a range of 50 to 70% of that before test.) | .smallcircle.
3 | CCCCc1ccc(N=Nc2c(S(=O)(=O)O)cc3cc(S(=O)(=O)O)c(N=Nc4ccc(C5(c6ccc(N=Nc7ccc(N)cc7O)cc6)CCCCC5)cc4)c(N)c3c2O)cc1 [Example 1] | .circleincircle. (The reflection density is not less than 70% of that before test.) | .smallcircle.
4 | CCCCc1ccc(N=Nc2c(S(=O)(=O)O)cc3cc(S(=O)(=O)O)c(N=Nc4ccc(C5(c6ccc(N=Nc7ccc(O)cc7O)cc6)CCCCC5)cc4)c(N)c3c2O)cc1 [Example 2] | .smallcircle. (The reflection density is within a range of 50 to 70% of that before test.) | .smallcircle.
5 | CCC(C)c1ccc(N=Nc2c(S(=O)(=O)O)cc3cc(S(=O)(=O)O)c(N=Nc4ccc(C5(c6ccc(N=Nc7ccc(N)cc7O)cc6)CCCCC5)cc4)c(N)c3c2O)cc1 (stereo not drawn) [Example 3] | .circleincircle. (The reflection density is not less than 70% of that before test.) | .smallcircle.
6 | Nc1ccc(N=Nc2ccc(C3(c4ccc(N=Nc5c(S(=O)(=O)O)cc6cc(S(=O)(=O)O)c(N=Nc7ccccc7)c(O)c6c5N)cc4)CCCCC3)cc2)c(O)c1 [Example 4] | .smallcircle. (The reflection density is within a range of 50 to 70% of that before test.) | .smallcircle.
7 | CC(C)c1ccc(N=Nc2c(S(=O)(=O)O)cc3cc(S(=O)(=O)O)c(N=Nc4ccc(C5(c6ccc(N=Nc7ccc(N)cc7O)cc6)CCCCC5)cc4)c(N)c3c2O)cc1 [Example 5] | .circleincircle. (The reflection density is not less than 70% of that before test.) | .smallcircle.
8 | Cc1ccc(N=Nc2c(S(=O)(=O)O)cc3cc(S(=O)(=O)O)c(N=Nc4ccc(C5(c6ccc(N=Nc7ccc(N)cc7O)cc6)CCCCC5)cc4)c(N)c3c2O)cc1 [Example 6] | .circleincircle. (The reflection density is not less than 70% of that before test.) | .smallcircle.
9 | CCCCc1ccc(N=Nc2c(S(=O)(=O)O)cc3cc(S(=O)(=O)O)c(N=Nc4ccc(C5(c6ccc(N=Nc7ccc(N(CC)CC)cc7C)cc6)CCCCC5)cc4)c(N)c3c2O)cc1 [Example 7] | .circleincircle. (The reflection density is not less than 70% of that before test.) | .smallcircle.
10 | CCCCc1ccc(N=Nc2c(S(=O)(=O)O)cc3cc(S(=O)(=O)O)c(N=Nc4ccc(C5(c6ccc(N=Nc7ccc(N(C)C)cc7C(=O)O)cc6)CCCCC5)cc4)c(N)c3c2O)cc1 [Example 8] | .smallcircle. (The reflection density is within a range of 50 to 70% of that before test.) | .smallcircle.
11 | CCCCc1ccc(N=Nc2c(S(=O)(=O)O)cc3cc(S(=O)(=O)O)c(N=Nc4ccc(C5(c6ccc(N=Nc7ccc(N(C)C)cc7O)cc6)CCCCC5)cc4)c(N)c3c2O)cc1 [Example 9] | .smallcircle. (The reflection density is within a range of 50 to 70% of that before test.) | .smallcircle.
12 | C.I. Direct Black 168 [Comparative Example 3, reference compound] | .smallcircle. (The reflection density is within a range of 50 to 70% of that before test.) | .smallcircle.
